Experimental data as given in the supplement of paper PMC7666118.
The other results are listed elsewhere or left out.

Chains of the proteins cited; added tags and fusions are not shown. Lines headed by an entry give the natural chain unless they say otherwise; changes in a name come on top.
UniProt Q07960: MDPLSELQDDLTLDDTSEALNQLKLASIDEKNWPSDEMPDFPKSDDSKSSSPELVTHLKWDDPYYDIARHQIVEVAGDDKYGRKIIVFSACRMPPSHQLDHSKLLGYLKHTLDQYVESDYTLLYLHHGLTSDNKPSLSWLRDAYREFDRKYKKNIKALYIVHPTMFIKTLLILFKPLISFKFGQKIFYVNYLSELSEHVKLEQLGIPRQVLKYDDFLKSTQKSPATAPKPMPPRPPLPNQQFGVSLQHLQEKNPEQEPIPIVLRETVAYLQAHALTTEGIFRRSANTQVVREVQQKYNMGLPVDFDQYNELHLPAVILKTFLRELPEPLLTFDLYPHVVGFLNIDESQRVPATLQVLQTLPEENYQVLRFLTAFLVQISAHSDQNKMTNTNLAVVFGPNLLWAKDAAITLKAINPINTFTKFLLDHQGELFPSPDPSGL
UniProt Q9UMZ2: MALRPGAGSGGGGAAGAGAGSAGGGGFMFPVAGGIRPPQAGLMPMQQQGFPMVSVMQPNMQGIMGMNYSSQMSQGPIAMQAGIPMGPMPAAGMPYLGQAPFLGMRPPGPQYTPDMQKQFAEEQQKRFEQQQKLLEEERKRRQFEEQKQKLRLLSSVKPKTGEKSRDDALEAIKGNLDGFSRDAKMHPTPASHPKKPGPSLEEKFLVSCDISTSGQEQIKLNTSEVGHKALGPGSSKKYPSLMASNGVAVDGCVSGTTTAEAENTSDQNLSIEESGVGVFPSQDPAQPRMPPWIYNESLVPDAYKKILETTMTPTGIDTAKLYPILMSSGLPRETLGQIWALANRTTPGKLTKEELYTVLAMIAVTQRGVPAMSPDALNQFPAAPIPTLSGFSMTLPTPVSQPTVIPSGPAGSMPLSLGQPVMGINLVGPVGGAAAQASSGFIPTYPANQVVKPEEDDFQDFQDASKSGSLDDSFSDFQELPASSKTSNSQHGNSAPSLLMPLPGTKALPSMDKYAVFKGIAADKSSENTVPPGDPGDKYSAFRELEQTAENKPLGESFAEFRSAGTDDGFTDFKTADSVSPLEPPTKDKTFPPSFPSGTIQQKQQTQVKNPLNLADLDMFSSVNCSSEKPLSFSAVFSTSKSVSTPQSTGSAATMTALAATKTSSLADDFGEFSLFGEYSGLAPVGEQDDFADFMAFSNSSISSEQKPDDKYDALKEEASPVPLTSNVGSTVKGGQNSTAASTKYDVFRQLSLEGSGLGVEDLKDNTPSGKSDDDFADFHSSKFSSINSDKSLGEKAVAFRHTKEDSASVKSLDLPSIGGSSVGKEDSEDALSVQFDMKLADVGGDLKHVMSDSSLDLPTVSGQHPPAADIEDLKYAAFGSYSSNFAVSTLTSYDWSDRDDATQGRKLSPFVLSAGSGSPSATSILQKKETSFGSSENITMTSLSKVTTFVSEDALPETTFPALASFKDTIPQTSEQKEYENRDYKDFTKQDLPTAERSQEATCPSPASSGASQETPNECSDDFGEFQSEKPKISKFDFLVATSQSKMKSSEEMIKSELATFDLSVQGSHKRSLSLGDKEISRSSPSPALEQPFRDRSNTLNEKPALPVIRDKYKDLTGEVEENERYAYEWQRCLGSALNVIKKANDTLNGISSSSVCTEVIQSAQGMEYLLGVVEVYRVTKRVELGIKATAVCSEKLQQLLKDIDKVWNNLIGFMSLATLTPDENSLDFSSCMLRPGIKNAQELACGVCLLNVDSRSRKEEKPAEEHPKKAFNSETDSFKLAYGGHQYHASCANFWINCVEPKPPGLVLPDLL
UniProt P61163, whole entry: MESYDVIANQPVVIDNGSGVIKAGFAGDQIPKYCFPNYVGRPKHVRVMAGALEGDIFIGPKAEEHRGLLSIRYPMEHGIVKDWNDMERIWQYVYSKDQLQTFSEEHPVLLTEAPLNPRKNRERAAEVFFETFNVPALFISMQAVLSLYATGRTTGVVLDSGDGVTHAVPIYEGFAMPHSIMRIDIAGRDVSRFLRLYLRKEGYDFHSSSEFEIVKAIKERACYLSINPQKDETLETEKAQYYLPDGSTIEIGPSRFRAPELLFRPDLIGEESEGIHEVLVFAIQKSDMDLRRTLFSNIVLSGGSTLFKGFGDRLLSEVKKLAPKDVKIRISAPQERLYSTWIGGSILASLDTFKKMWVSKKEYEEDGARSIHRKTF
UniProt P55263: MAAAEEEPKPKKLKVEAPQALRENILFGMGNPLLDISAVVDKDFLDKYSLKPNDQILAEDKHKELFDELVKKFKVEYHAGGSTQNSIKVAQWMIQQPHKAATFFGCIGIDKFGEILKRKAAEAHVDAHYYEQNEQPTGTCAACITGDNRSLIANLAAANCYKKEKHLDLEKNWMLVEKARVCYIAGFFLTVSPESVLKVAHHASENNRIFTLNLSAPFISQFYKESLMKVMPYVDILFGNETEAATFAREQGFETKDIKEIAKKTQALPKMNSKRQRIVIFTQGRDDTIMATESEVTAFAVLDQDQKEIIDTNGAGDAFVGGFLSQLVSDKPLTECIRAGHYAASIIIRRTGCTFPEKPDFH
UniProt P53680: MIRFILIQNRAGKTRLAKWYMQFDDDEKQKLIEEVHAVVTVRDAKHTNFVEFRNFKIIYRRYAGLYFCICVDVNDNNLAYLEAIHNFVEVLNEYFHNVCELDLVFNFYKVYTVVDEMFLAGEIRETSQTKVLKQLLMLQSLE
UniProt P30566: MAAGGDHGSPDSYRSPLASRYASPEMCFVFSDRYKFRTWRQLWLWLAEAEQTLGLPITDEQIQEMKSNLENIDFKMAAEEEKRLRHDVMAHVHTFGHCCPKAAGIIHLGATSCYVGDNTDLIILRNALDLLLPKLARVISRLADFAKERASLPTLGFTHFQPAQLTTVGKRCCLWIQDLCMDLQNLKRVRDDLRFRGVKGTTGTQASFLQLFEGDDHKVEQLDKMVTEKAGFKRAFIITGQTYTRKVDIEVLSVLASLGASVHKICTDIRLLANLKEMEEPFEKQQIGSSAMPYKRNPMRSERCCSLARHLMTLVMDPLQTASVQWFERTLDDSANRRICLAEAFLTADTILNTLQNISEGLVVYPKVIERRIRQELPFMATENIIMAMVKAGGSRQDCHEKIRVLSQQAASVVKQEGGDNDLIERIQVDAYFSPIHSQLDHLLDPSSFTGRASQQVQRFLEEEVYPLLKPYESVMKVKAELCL
UniProt Q9UPM8: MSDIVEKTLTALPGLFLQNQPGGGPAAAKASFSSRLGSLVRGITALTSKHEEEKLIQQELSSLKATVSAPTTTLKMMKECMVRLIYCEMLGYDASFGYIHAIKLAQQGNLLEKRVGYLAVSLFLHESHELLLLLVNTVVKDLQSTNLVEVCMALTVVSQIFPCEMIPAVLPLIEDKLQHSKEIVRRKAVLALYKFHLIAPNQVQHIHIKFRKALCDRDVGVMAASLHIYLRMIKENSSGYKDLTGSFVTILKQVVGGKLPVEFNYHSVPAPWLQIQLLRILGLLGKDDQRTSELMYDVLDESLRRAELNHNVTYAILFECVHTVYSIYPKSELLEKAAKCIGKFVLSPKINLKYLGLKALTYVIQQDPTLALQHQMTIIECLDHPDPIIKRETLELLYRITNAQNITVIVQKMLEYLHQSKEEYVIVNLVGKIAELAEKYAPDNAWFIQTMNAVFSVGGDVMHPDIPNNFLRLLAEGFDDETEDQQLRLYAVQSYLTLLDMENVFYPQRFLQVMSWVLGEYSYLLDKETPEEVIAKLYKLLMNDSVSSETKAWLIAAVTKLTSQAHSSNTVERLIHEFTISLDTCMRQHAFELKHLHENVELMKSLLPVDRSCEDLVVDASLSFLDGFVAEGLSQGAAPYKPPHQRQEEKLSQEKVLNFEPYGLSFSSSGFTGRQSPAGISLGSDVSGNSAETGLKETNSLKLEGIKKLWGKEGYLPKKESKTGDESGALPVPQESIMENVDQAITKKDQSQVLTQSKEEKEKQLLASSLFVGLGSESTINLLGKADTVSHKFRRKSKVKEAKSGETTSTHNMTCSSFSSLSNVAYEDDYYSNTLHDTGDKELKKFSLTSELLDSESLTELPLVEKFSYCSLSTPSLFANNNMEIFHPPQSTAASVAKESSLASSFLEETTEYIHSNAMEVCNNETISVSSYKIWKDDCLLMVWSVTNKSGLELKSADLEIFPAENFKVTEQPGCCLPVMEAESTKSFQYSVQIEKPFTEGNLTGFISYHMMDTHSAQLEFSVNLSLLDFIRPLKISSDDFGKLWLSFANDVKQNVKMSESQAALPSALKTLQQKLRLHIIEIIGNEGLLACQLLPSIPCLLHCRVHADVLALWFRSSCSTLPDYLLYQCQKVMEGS
UniProt P53367: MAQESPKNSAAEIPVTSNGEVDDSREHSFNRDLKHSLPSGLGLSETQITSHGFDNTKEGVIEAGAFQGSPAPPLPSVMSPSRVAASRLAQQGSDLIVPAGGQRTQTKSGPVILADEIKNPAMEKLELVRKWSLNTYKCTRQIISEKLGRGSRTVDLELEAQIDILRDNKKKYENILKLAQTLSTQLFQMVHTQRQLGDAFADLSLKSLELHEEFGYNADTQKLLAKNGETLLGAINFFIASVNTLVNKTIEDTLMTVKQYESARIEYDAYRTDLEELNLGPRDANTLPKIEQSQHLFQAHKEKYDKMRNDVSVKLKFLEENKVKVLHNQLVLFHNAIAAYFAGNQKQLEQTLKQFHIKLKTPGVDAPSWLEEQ
UniProt Q06481, whole entry: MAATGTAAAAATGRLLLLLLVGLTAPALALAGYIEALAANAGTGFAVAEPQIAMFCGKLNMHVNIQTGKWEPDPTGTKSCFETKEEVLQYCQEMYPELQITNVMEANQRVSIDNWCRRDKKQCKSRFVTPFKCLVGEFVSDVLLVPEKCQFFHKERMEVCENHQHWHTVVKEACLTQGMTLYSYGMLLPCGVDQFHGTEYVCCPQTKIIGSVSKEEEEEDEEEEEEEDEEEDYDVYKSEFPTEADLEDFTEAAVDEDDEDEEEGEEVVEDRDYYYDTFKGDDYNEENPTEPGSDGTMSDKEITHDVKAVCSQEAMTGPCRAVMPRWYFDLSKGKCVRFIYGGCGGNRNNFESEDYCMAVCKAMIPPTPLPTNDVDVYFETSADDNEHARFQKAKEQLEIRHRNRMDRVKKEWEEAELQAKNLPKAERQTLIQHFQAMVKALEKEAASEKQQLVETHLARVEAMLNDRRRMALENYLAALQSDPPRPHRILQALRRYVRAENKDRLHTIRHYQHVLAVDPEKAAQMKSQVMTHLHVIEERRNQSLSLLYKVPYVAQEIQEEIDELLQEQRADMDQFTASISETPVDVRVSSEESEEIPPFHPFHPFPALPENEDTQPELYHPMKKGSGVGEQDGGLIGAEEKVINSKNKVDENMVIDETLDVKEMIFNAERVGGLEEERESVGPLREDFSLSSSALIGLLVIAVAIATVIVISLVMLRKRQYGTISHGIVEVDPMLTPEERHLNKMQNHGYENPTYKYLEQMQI
UniProt Q6P6C2: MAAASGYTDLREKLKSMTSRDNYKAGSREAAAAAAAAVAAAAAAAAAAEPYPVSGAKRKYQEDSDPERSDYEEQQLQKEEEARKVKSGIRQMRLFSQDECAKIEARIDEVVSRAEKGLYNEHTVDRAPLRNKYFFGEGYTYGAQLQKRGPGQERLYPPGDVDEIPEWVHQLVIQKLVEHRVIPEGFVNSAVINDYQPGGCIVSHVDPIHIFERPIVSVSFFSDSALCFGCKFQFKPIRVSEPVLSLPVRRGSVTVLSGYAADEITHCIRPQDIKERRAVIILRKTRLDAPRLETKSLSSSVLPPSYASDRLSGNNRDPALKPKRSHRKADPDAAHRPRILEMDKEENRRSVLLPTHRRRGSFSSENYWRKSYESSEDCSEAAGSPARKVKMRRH
UniProt P52565: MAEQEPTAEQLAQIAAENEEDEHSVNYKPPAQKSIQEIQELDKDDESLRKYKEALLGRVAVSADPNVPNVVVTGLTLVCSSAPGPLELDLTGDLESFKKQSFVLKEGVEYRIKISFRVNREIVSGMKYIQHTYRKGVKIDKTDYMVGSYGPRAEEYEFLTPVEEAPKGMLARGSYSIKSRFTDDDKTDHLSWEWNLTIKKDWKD
UniProt Q9H6U8: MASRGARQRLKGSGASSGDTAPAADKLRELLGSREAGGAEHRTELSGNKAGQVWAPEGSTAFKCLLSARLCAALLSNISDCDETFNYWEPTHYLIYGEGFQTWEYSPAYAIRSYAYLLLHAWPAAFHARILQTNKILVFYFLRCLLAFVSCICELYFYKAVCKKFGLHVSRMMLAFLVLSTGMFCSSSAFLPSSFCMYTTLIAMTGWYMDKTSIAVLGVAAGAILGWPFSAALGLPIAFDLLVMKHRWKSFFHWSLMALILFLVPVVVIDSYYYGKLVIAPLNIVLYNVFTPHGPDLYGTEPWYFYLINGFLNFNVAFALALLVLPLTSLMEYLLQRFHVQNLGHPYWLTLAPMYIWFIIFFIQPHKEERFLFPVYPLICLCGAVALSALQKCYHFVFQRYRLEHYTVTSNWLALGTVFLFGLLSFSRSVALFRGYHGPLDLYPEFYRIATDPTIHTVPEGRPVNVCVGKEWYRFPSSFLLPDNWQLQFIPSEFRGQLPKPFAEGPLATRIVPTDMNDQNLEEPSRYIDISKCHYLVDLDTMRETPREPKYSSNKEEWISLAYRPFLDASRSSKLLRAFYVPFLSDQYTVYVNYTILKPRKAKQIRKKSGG

compound: COc1ccc(Cn2ccc3ccc(C(=O)NO)cc32)cc1; experiment: dose-dependent thermal stabilisation call (2D-TPP, DLPTP, 10% FDR) (binary (1 = stabilised)); higher = stabilised by the compound; settings: system: HL-60 intact cells; concentration range 0.04-10 µM

With ANTXR1 (UniProt Q9H6X2) as the target, how does the “dose-dependent thermal stabilisation call” value read?
The value was inactive: 0.

For ALG5 (UniProt Q9Y673), which “dose-dependent thermal stabilisation call” value is on record?
Its value is inactive: 0.

How did the “dose-dependent thermal stabilisation call” value turn out when ARHGAP1 (UniProt Q07960) was run?
The value was inactive: 0.

How did the “dose-dependent thermal stabilisation call” value turn out when AP1GBP1 (UniProt Q9UMZ2) was run?
The value was inactive: 0.

How did the “dose-dependent thermal stabilisation call” value turn out when ARHGAP18 (UniProt Q8N392) was run?
Its value is inactive: 0.

With ANLN (UniProt Q9NQW6) as the target, how does the “dose-dependent thermal stabilisation call” value read?
The value was inactive: 0.

How did the “dose-dependent thermal stabilisation call” value turn out when ARL13B (UniProt Q3SXY8) was run?
Its value is inactive: 0.

Which “dose-dependent thermal stabilisation call” value does the source give for ACOT8 (UniProt O14734) here?
Its value is inactive: 0.

ACTR1A (UniProt P61163) was tested. Which “dose-dependent thermal stabilisation call” value did it give?
The value was inactive: 0.

For AP1S1 (UniProt P61966), which “dose-dependent thermal stabilisation call” value is on record?
The value was inactive: 0.

Which “dose-dependent thermal stabilisation call” value does the source give for ADK (UniProt P55263) here?
Its value is active: 1.

For ACBD5 (UniProt Q5T8D3), which “dose-dependent thermal stabilisation call” value is on record?
Its value is inactive: 0.

How did the “dose-dependent thermal stabilisation call” value turn out when ANKRD13A (UniProt Q8IZ07) was run?
The value was inactive: 0.

AP2S1 (UniProt P53680) was tested. Which “dose-dependent thermal stabilisation call” value did it give?
Its value is inactive: 0.

With ARIH1 (UniProt Q9Y4X5) as the target, how does the “dose-dependent thermal stabilisation call” value read?
The value was inactive: 0.

How did the “dose-dependent thermal stabilisation call” value turn out when ADAM22 (UniProt Q9P0K1) was run?
Its value is inactive: 0.

How did the “dose-dependent thermal stabilisation call” value turn out when ALDH5A1 (UniProt P51649) was run?
Its value is active: 1.

For AIM1, which “dose-dependent thermal stabilisation call” value is on record?
Its value is inactive: 0.

For ALG3 (UniProt Q92685), which “dose-dependent thermal stabilisation call” value is on record?
Its value is inactive: 0.

ADSL (UniProt P30566) was tested. Which “dose-dependent thermal stabilisation call” value did it give?
The value was active: 1.

With ADAM15 (UniProt Q13444) as the target, how does the “dose-dependent thermal stabilisation call” value read?
The value was inactive: 0.

AP4E1 (UniProt Q9UPM8) was tested. Which “dose-dependent thermal stabilisation call” value did it give?
The value was inactive: 0.

Which “dose-dependent thermal stabilisation call” value does the source give for APOBEC3C (UniProt Q9NRW3) here?
Its value is inactive: 0.

Which “dose-dependent thermal stabilisation call” value does the source give for ARID1B (UniProt Q8NFD5) here?
The value was inactive: 0.

For ARFIP1 (UniProt P53367), which “dose-dependent thermal stabilisation call” value is on record?
The value was inactive: 0.

Which “dose-dependent thermal stabilisation call” value does the source give for ANXA7 (UniProt P20073) here?
Its value is inactive: 0.

AP3B1 (UniProt O00203) was tested. Which “dose-dependent thermal stabilisation call” value did it give?
The value was inactive: 0.

How did the “dose-dependent thermal stabilisation call” value turn out when APLP2 (UniProt Q06481) was run?
Its value is inactive: 0.

How did the “dose-dependent thermal stabilisation call” value turn out when AHCYL2 (UniProt Q96HN2) was run?
Its value is inactive: 0.

AP2A1 (UniProt O95782) was tested. Which “dose-dependent thermal stabilisation call” value did it give?
The value was inactive: 0.

With ALKBH3 (UniProt Q96Q83) as the target, how does the “dose-dependent thermal stabilisation call” value read?
Its value is inactive: 0.

How did the “dose-dependent thermal stabilisation call” value turn out when AK2 (UniProt P54819) was run?
Its value is inactive: 0.

Which “dose-dependent thermal stabilisation call” value does the source give for ANKRD54 (UniProt Q6NXT1) here?
Its value is inactive: 0.

For ALKBH5 (UniProt Q6P6C2), which “dose-dependent thermal stabilisation call” value is on record?
Its value is inactive: 0.

With ARHGDIA (UniProt P52565) as the target, how does the “dose-dependent thermal stabilisation call” value read?
Its value is inactive: 0.

For ANO10 (UniProt Q9NW15), which “dose-dependent thermal stabilisation call” value is on record?
The value was inactive: 0.

ALG9 (UniProt Q9H6U8) was tested. Which “dose-dependent thermal stabilisation call” value did it give?
The value was inactive: 0.
